Values from PubChem BioAssay AID686937 (Drosophila RNAi Screening Center, 2013)
Aim: 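Knock-downs that reduce output of a secreted reporter enzyme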 (primary screen). Cell system: Drosophila S2 cells expressing secreted horseradish peroxidase. Knock-down reagent: long dsRNA against Drosophila genes. Timing: about 5.5 days (5 days dsRNA, then 12 h reporter induction). Challenge: reporter expression induced after 5 days of dsRNA, read 12 h later; inducer not stated. Measured: 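Chemiluminescent measurement of peroxidase in the medium 12 h after reporter induction, following 5 days of dsRNA, given as a z-score per plate; higher means more secretion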. Direction: z-score: higher = more reporter secreted into medium.
In all, the deposit lists about 23,000 reagents; shown is an unselected part of those that have a named target and a result. 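Reduced-secretion tags in replicate 1 do not always agree with the z-scores; no criterion for assigning the tags was given.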 The numbers tell different reagents against one gene apart. Names joined by + are all predicted targets of the reagent. The record does not give: the amount of reagent.

Silencing of laf gave: z-score, replicate 1 = -0.05; z-score, replicate 2 = 0.43.
CG15818 showed z-score, replicate 1 = 0.23; z-score, replicate 2 = 0.37.
Against CG46339, the values are z-score, replicate 1 = 0.24; z-score, replicate 2 = 0.28.
Against CG13566, the entry reads z-score, replicate 1 = 0.2; z-score, replicate 2 = -0.16.
After knock-down of path, the record shows z-score, replicate 1 = 0.38; z-score, replicate 2 = 0.3.
Depletion of CG3594 #1 gave: z-score, replicate 1 = 0.12; z-score, replicate 2 = 0.22.
CG3594 #2 scored z-score, replicate 1 = 0.31; z-score, replicate 2 = 0.9.
Against CNPYb, the entry reads z-score, replicate 1 = 0.15; z-score, replicate 2 = 0.36.
With knock-down of dikar #1, the record shows z-score, replicate 1 = 0.31; z-score, replicate 2 = 0.19.
With knock-down of dikar #2, the screen gave z-score, replicate 1 = -0.67; z-score, replicate 2 = 0.41.
Against CG10340, the entry reads z-score, replicate 1 = 0.1; z-score, replicate 2 = 0.2.
With knock-down of U4-U6-60K the results were z-score, replicate 1 = -0.51; z-score, replicate 2 = -0.37.
Silencing of Sgs7 gave: z-score, replicate 1 = 0.14; z-score, replicate 2 = -0.05.
CG13059 gave z-score, replicate 1 = 0.45; z-score, replicate 2 = 0.33.
Against Cpr78Ca the deposit lists z-score, replicate 1 = 0.35; z-score, replicate 2 = 0.39.
Against Rab9Db + Rab9D + Rab9Fa + 1 more, the values are z-score, replicate 1 = 0.15; z-score, replicate 2 = 0.18.

2 of these entries, reformatted.
| Target gene | dsRNA no. | z-score, replicate 1 | z-score, replicate 2 |
| --- | --- | --- | --- |
| CG3594 | 1 | 0.12 | 0.22 |
| CG3594 | 2 | 0.31 | 0.9 |
